# Results published in patent publication US5447954A, “Phenylderivate as inhibitors of ATP citrate lyase” (SmithKline Beecham p.l.c., priority 1992, dated 1995).
# Counter-ions that a name gives are not always drawn. Some results were stated once for a whole list of compounds, not compound by compound.
# Target: T1, rat ATP citrate lyase (Rattus norvegicus, UniProt P16638)
# T1 construct: prior to removal of the livers; ATP Citrate lyase was prepared according to the method of Wraight et al; from tissue; host or cells: liver of male Wistar rats (fasted, then fed a high carbohydrate diet)
# T1 sequence (P16638 1-1100): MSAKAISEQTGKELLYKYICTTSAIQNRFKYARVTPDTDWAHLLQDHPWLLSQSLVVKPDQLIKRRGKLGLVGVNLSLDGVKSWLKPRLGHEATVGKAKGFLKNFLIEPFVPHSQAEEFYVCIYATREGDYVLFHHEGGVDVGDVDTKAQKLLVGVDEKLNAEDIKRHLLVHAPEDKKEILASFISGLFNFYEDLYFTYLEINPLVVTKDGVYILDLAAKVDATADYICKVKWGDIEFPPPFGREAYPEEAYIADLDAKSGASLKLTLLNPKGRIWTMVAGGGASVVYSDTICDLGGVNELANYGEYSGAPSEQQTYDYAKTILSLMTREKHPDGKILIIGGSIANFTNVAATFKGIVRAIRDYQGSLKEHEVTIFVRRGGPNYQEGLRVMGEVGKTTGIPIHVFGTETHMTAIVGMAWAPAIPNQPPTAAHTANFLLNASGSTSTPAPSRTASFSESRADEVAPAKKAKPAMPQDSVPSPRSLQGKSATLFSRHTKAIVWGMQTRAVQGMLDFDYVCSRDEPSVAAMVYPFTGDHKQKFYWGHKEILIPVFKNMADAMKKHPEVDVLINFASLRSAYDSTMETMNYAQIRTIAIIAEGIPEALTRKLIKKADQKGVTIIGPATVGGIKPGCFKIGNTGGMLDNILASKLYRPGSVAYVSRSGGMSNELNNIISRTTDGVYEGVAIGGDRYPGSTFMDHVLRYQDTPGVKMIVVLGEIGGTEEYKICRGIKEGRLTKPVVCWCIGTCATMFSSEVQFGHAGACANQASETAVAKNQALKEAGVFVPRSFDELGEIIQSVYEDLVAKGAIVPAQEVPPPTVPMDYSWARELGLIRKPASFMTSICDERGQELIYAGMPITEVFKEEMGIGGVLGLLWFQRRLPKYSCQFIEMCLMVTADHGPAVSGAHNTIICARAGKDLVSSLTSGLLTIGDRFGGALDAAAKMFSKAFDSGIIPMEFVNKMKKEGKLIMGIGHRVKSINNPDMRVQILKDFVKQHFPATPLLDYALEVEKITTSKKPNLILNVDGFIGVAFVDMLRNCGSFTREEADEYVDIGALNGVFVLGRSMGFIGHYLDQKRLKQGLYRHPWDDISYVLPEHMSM
# Test: Assay of ATP Citrate lyase in the presence of inhibitors (rat enzyme)
# Format: biochemical
# Conditions: 100 μM citrate, pH 8.0, 25° C.
# Protocol: 1. RAT ATP CITRATE LYASE (ACL) ASSAY
# Purification of ATP Citrate lyase-human and rat enzymes
# Male Wistar rats were fasted for 24 h, then fed on a high carbohydrate diet for 72 h prior to removal of the livers. ATP Citrate lyase was prepared according to the method of Wraight et al (Anal. Biochem., 1985, 144, 604-609) with modifications for large scale purification according to Wells (Eur. J. Biochem., 1991, 199, 163-168). Protein obtained by this method was pure as judged by SDS-PAGE.
# Assay of ATP Citrate lyase in the presence of inhibitors
# (§1) ATP Citrate lyase activity was assayed at 25° C. by reducing the oxaloacetate produced with malate dehydrogenase and NADH while monitoring at 340 nm using a Beckman DU50 spectrophotometer (according to the method of Linnet al (J. Biol. Chem., 1979, 254, 1691-1698)). Briefly, ATP citrate lyase (human or rat) was added to a 1 ml cuvette containing 50 mM Tris/HCl, pH=8.0, 0.2 mM NADH, 10 mM MgCl2, 10 mM KCl, 5 mM ATP, 200 μM coenzyme A, 10 mM dithiothreitol and malate dehydrogenase. An aqueous solution of inhibitor was added (for inhibitors which were insoluble in water, a stock solution was prepared in DMSO. However the final DMSO concentration in the cuvette was not allowed to exceed 1%.). Finally, tripotassium citrate was added to 100 μM final. This is Km for citrate (Wells et al (Eur. J. Biochem., 1992, 204, 249-255) and Houston et al (Biochim. Biophys. Acta, 1985, 844, 233-239)). Data analysis was performed using the curve fitting package Enzfitter (Elsevier Biosoft). For competitive inhibitors data was fitted to the equation
# where v is the observed rate and I is the concentration of inhibitor added. Thus the dissociation constant Ki for the inhibitor could be found.
row,SMILES,Ki [µM]
1,"O=C(O)/C=C(\CC(O)CCCCCCc1ccc(Cl)cc1Cl)C(=O)O (racemic) [Example 3, ±(E)-3-Carboxy-11-(2,4-dichlorophenyl)-5-hydroxy-2-undecenoic acid]",< 30
2,"O=C1C[C@](O)(C(=O)O)[C@H](CCCCCCCCc2ccc(Cl)cc2Cl)O1 (relative stereo) [Example 5, ±(4R*,5S*) 4-Carboxy-5-[8-(2,4-dichlorophenyl)octyl]-4-hydroxytetrahydrofuran-2-one]",< 30
3,"O=C(O)C[C@](O)(C(=O)O)[C@@H](O)CCCCCCCc1ccc(Cl)cc1Cl (relative stereo) [Example 6, ±(3R*,4S*) 3-Carboxy-11-(2 4-dichlorophenyl)-3 4-dihydroxyundecanoic acid]",< 30
4,"O=C1C[C@](O)(C(=O)O)[C@@H](CCCCCCCCc2ccc(Cl)cc2Cl)O1 (relative stereo) [Example 7, ±(4R*,5R*) 4-Carboxy-5-[8-(2,4-dichlorophenyl)octyl]-4-hydroxytetrahydrofuran-2-one]",< 30

# Target: T2, human ATP citrate lyase (Homo sapiens, UniProt P53396)
# T2 construct: made in house
# T2 sequence (P53396 1-1101): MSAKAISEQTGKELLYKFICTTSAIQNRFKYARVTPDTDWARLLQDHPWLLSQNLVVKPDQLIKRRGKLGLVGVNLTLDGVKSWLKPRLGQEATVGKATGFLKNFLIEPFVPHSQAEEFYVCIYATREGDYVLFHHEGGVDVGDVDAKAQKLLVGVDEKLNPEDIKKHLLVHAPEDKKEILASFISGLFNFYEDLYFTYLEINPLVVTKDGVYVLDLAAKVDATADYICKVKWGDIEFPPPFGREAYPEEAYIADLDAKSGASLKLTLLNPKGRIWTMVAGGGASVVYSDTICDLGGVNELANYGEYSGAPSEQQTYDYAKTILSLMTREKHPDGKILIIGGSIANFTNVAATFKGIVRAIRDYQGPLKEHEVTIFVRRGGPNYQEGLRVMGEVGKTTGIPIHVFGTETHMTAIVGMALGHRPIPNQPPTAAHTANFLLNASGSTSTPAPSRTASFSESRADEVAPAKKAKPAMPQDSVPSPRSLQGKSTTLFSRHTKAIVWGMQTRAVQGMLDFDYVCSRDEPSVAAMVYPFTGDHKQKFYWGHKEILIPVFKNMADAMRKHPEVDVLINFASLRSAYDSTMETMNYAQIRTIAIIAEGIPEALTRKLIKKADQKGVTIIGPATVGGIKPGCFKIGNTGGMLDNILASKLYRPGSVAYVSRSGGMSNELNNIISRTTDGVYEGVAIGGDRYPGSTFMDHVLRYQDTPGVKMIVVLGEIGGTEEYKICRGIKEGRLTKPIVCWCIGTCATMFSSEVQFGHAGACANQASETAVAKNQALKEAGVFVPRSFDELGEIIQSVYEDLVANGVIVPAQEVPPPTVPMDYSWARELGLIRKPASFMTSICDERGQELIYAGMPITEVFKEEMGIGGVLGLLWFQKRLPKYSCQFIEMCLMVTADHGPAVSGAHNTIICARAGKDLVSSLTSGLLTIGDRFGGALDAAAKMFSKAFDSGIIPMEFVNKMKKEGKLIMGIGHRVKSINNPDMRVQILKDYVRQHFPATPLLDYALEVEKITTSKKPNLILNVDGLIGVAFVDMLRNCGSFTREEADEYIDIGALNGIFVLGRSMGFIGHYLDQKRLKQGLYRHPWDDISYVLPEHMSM
# Test: Assay of ATP Citrate lyase in the presence of inhibitors (human enzyme)
# Format: biochemical
# Conditions: 100 μM citrate, pH 8.0, 25° C.
# Protocol: as §1, with “Purification of ATP Citrate lyase-human and rat enzymes (ii) human enzyme Human ATP citrate lyase was prepared as described in European Journal of Biochemistry, 1992, 204, 491-99, with modifications for large scale purification according to Wells as referred to above. Protein obtained by this method was pure as judged by SDS-PAGE. Assay of ATP Citrate lyase in the presence of inhibitors ATP Citrate” for “ATP Citrate”, “method of […] al (J.” for “method of Linnet al (J.”, “the equation v=vmax./(2+I/Ki) where v is the observed rate and I is the concentration of inhibitor added. Thus the dissociation constant Ki for the inhibitor could be found.” for “the equation”
row,SMILES,Ki [µM]
1,"O=C(O)C[C@](O)(C[C@@H](O)CCCCCCc1ccc(Cl)cc1C(F)(F)F)C(=O)O (relative stereo) [Example 13, ±(3R*,5S*) 3-Carboxy-11-(4-chloro-2-trifluoromethylphenyl)-3,5-dihydroxyundecanoic acid, disodium salt]",< 82
2,"CC(=O)c1cc(Cl)ccc1CCCCCC[C@H](O)C[C@@](O)(CC(=O)O)C(=O)O (relative stereo) [Example 14, ±(3R*,5S*) 11-(2-Acetyl-4-chlorophenyl)-3-carboxy-3,5-dihydroxyundecanoic acid, disodium salt]",< 82
3,"O=C(O)C[C@](O)(C[C@@H](O)CCCCCCc1ccc(Cl)cc1C(=O)c1ccccc1)C(=O)O (relative stereo) [Example 15, ±(3R*,5S*) 11-(2-Benzoyl-4-chlorophenyl)-3-carboxy-3,5-dihydroxyundecanoic acid, disodium salt (0.3H2 O)]",< 82
4,"CCCC(=O)c1cc(Cl)ccc1CCCCCC[C@H](O)C[C@@](O)(CC(=O)O)C(=O)O (relative stereo) [Example 16, ±(3R*,5S*) 11-(2-Butanoyl-4-chlorophenyl)-3-carboxy-3,5-dihydroxyundecanoic acid, disodium salt]",< 82
